Construct, isoform or probe ends are uncertain for at least one entry. At least one verdict was read from the data and is not stated in words by the source. For part of these data: Where a protein sequence is shown, tags need not be part of it.
How the values were obtained:
Assay in all cases: EMSA
ELK4 (human) = test system: T1, ELK4 (human); details: EMSA conditions not printed (as previously described, ref 5); protein stock in 10 mM Tris pH 7.9, 0.5 mM EDTA, 200 mM KCl, 1 mM DTT, 10% glycerol; recombinant protein; residues 1-405; protein details: N-term 6xHis
T1 sequence (looked up): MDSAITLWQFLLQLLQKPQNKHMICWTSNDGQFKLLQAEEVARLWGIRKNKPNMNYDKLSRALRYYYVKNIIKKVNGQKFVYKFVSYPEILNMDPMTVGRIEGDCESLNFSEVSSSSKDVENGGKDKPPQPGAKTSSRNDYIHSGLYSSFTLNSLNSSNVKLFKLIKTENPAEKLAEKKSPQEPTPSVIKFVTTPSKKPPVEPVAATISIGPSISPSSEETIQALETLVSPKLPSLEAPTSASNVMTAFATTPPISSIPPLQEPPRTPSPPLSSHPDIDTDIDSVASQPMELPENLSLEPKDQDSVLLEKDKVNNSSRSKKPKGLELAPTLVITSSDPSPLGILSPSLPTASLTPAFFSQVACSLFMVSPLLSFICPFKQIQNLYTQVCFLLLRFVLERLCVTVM

Chains of the proteins cited; added tags and fusions are not shown. Chains listed by the source or under a name are the forms on record and can include a tag or linker.
ELF2 (human), one chain, as listed by the source: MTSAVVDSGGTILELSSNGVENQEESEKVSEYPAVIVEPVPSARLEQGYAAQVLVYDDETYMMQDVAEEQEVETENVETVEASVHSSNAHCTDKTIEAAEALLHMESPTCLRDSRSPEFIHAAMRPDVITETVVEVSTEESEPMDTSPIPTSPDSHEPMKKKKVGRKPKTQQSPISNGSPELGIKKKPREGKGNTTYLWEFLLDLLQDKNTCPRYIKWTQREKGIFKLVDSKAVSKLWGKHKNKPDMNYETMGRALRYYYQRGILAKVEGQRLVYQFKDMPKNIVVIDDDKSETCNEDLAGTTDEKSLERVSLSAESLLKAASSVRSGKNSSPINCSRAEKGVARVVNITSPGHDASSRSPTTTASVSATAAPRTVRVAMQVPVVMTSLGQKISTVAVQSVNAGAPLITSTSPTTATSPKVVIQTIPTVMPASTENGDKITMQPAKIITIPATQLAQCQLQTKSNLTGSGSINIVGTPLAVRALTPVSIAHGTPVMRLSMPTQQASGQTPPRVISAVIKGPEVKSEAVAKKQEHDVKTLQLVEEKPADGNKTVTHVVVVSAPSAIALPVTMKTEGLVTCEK

ELF2 (human) = details: EMSA conditions not printed (as previously described, ref 5); protein stock in 10 mM Tris pH 7.9, 0.5 mM EDTA, 200 mM KCl, 1 mM DTT, 10% glycerol; recombinant protein; residues 1-581; protein details: N-term 6xHis
ELF1 (human) = target: T2, ELF1 (human) (UniProt P32519); details: EMSA conditions not printed (as previously described, ref 5); protein stock in 10 mM Tris pH 7.9, 0.5 mM EDTA, 200 mM KCl, 1 mM DTT, 10% glycerol; recombinant protein; residues 1-619; protein details: N-term 6xHis
T2 sequence (looked up): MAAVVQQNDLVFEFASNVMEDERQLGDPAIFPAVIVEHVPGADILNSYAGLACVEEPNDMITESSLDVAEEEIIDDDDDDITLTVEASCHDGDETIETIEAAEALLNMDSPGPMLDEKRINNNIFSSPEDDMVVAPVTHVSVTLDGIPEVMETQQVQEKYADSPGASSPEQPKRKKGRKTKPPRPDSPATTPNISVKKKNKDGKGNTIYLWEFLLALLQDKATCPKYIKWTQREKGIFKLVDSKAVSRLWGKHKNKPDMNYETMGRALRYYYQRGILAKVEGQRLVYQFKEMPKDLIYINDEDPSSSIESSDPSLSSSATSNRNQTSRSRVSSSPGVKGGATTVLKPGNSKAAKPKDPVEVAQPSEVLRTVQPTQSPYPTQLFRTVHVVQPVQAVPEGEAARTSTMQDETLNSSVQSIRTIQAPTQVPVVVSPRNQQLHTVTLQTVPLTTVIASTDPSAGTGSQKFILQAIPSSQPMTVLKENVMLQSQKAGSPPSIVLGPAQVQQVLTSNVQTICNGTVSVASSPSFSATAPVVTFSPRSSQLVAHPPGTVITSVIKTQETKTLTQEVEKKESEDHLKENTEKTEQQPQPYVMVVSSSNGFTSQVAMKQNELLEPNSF

ETV2 (human) = target: T3, ETV2 (human) (UniProt O00321); details: EMSA conditions not printed (as previously described, ref 5); protein stock in 10 mM Tris pH 7.9, 0.5 mM EDTA, 200 mM KCl, 1 mM DTT, 10% glycerol; recombinant protein; residues 1-342; protein details: N-term 6xHis
T3 sequence (looked up): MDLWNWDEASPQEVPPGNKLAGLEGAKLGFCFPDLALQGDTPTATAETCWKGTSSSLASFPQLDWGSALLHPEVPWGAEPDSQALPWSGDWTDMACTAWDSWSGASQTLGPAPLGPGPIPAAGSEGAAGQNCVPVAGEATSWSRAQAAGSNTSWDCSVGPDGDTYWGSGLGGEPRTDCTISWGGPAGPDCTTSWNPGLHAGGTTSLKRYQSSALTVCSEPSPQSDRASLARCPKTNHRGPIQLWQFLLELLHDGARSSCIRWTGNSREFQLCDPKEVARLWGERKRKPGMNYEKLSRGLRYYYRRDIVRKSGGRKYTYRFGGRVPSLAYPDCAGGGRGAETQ

SPDEF (human) = target: T4, SPDEF (human) (UniProt O95238); details: EMSA conditions not printed (as previously described, ref 5); protein stock in 10 mM Tris pH 7.9, 0.5 mM EDTA, 200 mM KCl, 1 mM DTT, 10% glycerol; recombinant protein; residues 1-335; protein details: N-term 6xHis
T4 sequence (looked up): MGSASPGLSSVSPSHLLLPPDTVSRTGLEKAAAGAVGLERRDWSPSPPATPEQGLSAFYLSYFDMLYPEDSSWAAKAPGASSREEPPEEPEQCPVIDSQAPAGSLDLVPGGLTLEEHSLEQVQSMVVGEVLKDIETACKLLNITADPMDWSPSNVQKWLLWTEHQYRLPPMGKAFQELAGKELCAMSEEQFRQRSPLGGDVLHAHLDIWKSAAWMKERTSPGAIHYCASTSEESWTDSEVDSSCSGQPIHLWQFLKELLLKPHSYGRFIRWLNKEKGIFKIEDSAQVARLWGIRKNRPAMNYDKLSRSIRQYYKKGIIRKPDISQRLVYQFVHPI

ETV4 (human) = target: T5, ETV4 (human) (UniProt P43268); details: EMSA conditions not printed (as previously described, ref 5); protein stock in 10 mM Tris pH 7.9, 0.5 mM EDTA, 200 mM KCl, 1 mM DTT, 10% glycerol; recombinant protein; residues 1-484; protein details: N-term 6xHis
T5 sequence (looked up): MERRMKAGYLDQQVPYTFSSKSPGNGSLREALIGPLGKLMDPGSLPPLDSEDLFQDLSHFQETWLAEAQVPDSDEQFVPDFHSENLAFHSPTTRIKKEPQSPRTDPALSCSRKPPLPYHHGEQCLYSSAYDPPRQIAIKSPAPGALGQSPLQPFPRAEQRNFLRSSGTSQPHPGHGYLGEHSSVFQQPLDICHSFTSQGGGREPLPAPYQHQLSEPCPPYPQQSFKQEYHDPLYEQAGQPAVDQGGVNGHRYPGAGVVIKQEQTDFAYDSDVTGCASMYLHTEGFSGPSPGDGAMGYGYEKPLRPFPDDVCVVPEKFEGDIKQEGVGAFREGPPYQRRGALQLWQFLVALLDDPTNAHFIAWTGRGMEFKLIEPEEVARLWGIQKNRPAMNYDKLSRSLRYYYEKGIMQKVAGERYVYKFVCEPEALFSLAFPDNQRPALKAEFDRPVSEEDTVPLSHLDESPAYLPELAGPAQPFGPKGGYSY

Measured: binding result

GCCACGGCCCAGGAAGTGACTCACCCACCCTGATG (double strand) [ETS consensus EMSA probe]
binds: ELK4 (human) | ELF2 (human) | ELF1 (human) | ETV2 (human) | SPDEF (human) | ETV4 (human)

Reference: publication PMC4338625
